This experiment is described as follows: qHTS Assay for Lipid Storage Modulators in Drosophila S3 Cells.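 As to cell number change: cells counted by Cell Tracker Red CMTPX staining in the red channel.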 Particulars: BODIPY lipid droplet fluorescence, 18-24 h; for cell number change: measured here: cell count max response, cells fed with added oleic acid. Put shortly: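 Drosophila S3 cells got compounds at several concentrations plus oleic acid (400 uM solution). Laser-scanning cytometry with 488 nm excitation read lipid droplets at 500-530 nm and cells at 575-640 nm. Percent activity was relative to 20 uM Triacsin C.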

Where [1] appears, read: measured here: lipid fluorescence (Fed channel) AC50, cells fed with added oleic acid.
[2] abbreviates: measured here: cell number channel AC50, cells fed with added oleic acid.

The other results are listed elsewhere or left out. Shown are side measurements of this screen, not its main read-out; they come without a call. The list favours compounds with an active or inconclusive main result. Potencies come from curve fits of mixed quality, noted in brackets.

The AC50 is the concentration at which the activity in the assay is half-maximal. Higher therefore signals weaker potency. Consider `CC(C)CC(=O)N1CCN(Cc2ccc(C(F)(F)F)cc2)CC1`, for which the cell number change is -3.57%. Further, the AC50 under setting [1] was 2.06 µM [rising, partial curve]. Take `Cc1ccc2c(CN3CCCCC3C)cc(=O)oc2c1` (stereo unspecified): the cell number change is 38.9%. Moreover, under setting [2], the AC50 was 14.6 µM [rising, partial curve, poor fit]. The AC50 under setting [1] was 0.58 µM [rising, single point]. For the compound `Cn1c(=O)c2c(SCc3ccccn3)nc(CC(C)(C)C)nc2n(C)c1=O`, the AC50 reads like this: under setting [2], 1.64 µM [rising, partial curve]; under setting [1], 1.84 µM [rising, partial curve]. Take `NC(=O)Cn1c(=O)oc2ccccc21`: the cell number change was -42.7%. Besides, the concentration at half-maximal activity (AC50) under setting [2] is 13 µM [falling, partial curve]. Also, the AC50 under setting [1] was 0.651 µM [falling, single point]. For the compound `CCN(C(=O)CSc1nnc(C)n1-c1cccc(C)c1)C1CCS(=O)(=O)C1` (stereo unspecified), the AC50 under setting [1] is 29.1 µM [falling, single point].

As to `Cc1ccccc1C1=Nn2c(nnc2-c2ccco2)SC1`, the AC50 under setting [1] was 0.366 µM [rising, single point]. Same read-out and setting: then `CCN(CC)S(=O)(=O)c1ccc(NC(=O)c2ccc(CN3CCOCC3)cc2)cc1`, with 2.31 µM [falling, partial curve, poor fit]. Take `COc1ccc(CNC(=O)c2ccc3ccccc3n2)cc1OC`: the cell number change was -9.52%. Regarding `O=C(CS(=O)(=O)Cc1ccccc1)Nc1ccc(S(=O)(=O)N2CCCCCC2)cc1`, the cell number change stood at 11%. The half-maximal activity concentration (AC50) under setting [1] is 16.4 µM [falling, partial curve]. On to `O=C(NCCN1C(=O)S/C(=C\c2ccc(OC(F)F)cc2)C1=O)[C@@H]1CCCN1C(=O)c1cccs1`, for which the cell number change is -8.67%. Besides, under setting [1], the AC50 was 11.6 µM [falling, single point]. As for `COc1cccc(/C=N/n2c(-c3ccco3)nc3ccccc3c2=O)c1`, the cell number change was -33.9%. Also, under setting [2], the AC50 is 32.6 µM [falling, single point]. The AC50 under setting [1] is 32.6 µM [falling, single point]. On to `COc1ccc2[nH]c(=O)c(COC(=O)c3ccco3)cc2c1`, for which the cell number change is 95.3%. The AC50 under setting [2] was 29.1 µM [rising, single point]. Turning to `CNS(=O)(=O)c1cccc(C(=O)OCC(=O)N(CCC#N)c2ccccc2)c1`, the cell number change is -30.5%. Besides, the AC50 under setting [2] is 2.31 µM [falling, partial curve, poor fit]. The AC50 under setting [1] is 0.164 µM [falling, full curve, poor fit]. For `C=CCNC(=O)C1CC(=O)N(c2ccc(OCC(=O)Nc3ccc(OC)cc3)cc2)C1` (stereo unspecified), the AC50 under setting [2] was 6.51 µM [rising, single point].

In the case of `NS(=O)(=O)c1ccc(NC(=O)CN2CCCC2)cc1`, the cell number change was determined as 9.56%. Under setting [1], the AC50 is 2.59 µM [rising, single point]. As to `CC1(c2ccc3noc(-c4cccc(F)c4)c3c2)OCCO1`, under setting [1], the AC50 is 29.1 µM [rising, single point].

As for `CC(C)=N/N=C1/NC(=O)C(Cc2ccccc2)S1` (stereo unspecified), the cell number change amounted to 1.09%. Under setting [1], the AC50 is 0.731 µM [rising, single point]. As for `COC(=O)CC1C(C(=O)OC)ON2OC(C(=O)OC)C(C(=O)OC)C12` (stereo unspecified), the cell number change was found to be 0.658%. Also, the AC50 under setting [1] was 6.51 µM [falling, single point]. Regarding `COc1cccc(CN(C)S(=O)(=O)c2cccs2)c1`, the cell number change was -38.1%. In addition, the AC50 under setting [2] is 23.1 µM [falling, single point].

With `CCN(c1ccc(NC(=O)CSCc2c(C)noc2C)cc1)C(C)C`, the cell number change is 0.963%. Besides, under setting [1], the AC50 was 0.92 µM [rising, full curve, poor fit]. Take `CN(Cc1ccccc1)C(=O)c1cc2ccccc2o1`: the cell number change was found to be 73.2%. Under setting [2], the AC50 is 1.84 µM [rising, full curve]. Further, the AC50 under setting [1] was 9.2 µM [rising, partial curve]. Take `CC1CN(C(=O)c2cccc(COc3ccccc3Cl)c2)CC(C)O1` (stereo unspecified): the cell number change stood at 1.87%. Further, the AC50 under setting [1] was 0.082 µM [falling, single point].

Turning to `NC(=O)/C=C/C(=O)Nc1ccc(Cl)cc1`, the cell number change was -49.5%. Under setting [2], the AC50 is 10.3 µM [falling, partial curve]. For the same compound, the AC50 under setting [1] is 14.6 µM [falling, partial curve]. For the compound `CCCc1cc(=O)oc2cc(OCC(=O)Nc3ccc4c(c3)OCCO4)ccc12`, the cell number change was -12.5%. Under setting [1], the AC50 is 0.731 µM [rising, single point]. As to `CC(C)C(NS(=O)(=O)c1ccc2c(c1)OCCCO2)C(=O)O` (stereo unspecified), the cell number change is -13.2%. `CCOC(=O)C(CC)n1cnc2c(nnn2-c2ccc(OC)cc2)c1=O` (stereo unspecified): the cell number change came to 17.9%. Besides, under setting [1], the AC50 was 0.517 µM [rising, full curve].

Regarding `N#CCCN(C(=O)Nc1ccccc1)c1ccccc1`, the cell number change was 9.39%. Under setting [1], the AC50 was 0.00411 µM [falling, full curve, poor fit]. Regarding `Cc1ccc(C2CC(=O)Oc3cc(O)ccc32)cc1` (stereo unspecified), the AC50 under setting [1] was 29.1 µM [rising, single point]. Turning to `C[C@@H]1Cc2c(O)c(O)cc(O)c2C(=O)O1`, the cell number change is 15.3%. Also, the AC50 under setting [1] was 6.51 µM [rising, single point]. On to `COc1ccc(OCCOC(=O)CN2C(=O)NC3(CCCC3)C2=O)cc1`, for which, under setting [2], the AC50 is 2.06 µM [rising, partial curve]. As to `COC(C)(C)[C@H](O)COc1c2ccoc2cc2oc(=O)ccc12`, the cell number change turned out to be 7.17%. Moreover, the AC50 under setting [1] was 3.66 µM [rising, full curve, poor fit]. As for `C=C(c1ccccc1C)[n+]1ccccc1`, the cell number change is 4.01%. In the case of `Cc1ccsc1/C=N/NC(=O)c1ccc2ccccc2c1`, the cell number change was determined as 33.7%. In addition, under setting [2], the AC50 was 29.1 µM [rising, single point]. As for `COc1cc2c(cc1OC)-c1cc(NC3CCCCCC3)nc(=O)n1CC2`, under setting [2], the AC50 is 4.61 µM [falling, single point]. Regarding `Cc1ccc(S(=O)(=O)Cc2c(C)noc2C)cc1`, the cell number change worked out at 2.36%. The AC50 under setting [1] was 2.06 µM [falling, partial curve]. `CCS(=O)(=O)n1nc(-c2ccc(OC)cc2)nc1SC`: the cell number change is 11.2%. For the same compound, the AC50 under setting [1] was 2.31 µM [rising, single point].

In the case of `O=C(/C(=C/c1ccncc1)n1ccnc1)c1ccc(Cl)cc1Cl`, the cell number change is -24.6%. In addition, under setting [1], the AC50 is 2.91 µM [rising, partial curve, poor fit].

With `COc1ccccc1N(C)S(=O)(=O)c1ccc(C(=O)OCC(=O)N(C)c2ccccc2)cc1`, under setting [2], the AC50 was 6.51 µM [rising, single point].

As to `O=C(CSc1ccncc1)Nc1ccc2ccccc2c1`, the cell number change turned out to be 40%. The AC50 under setting [2] is 18.4 µM [rising, partial curve]. Besides, the AC50 under setting [1] was 1.64 µM [rising, partial curve]. As to `COc1cccc(CN(C(=O)c2ccccc2Cl)C2CCS(=O)(=O)C2)c1` (stereo unspecified), the cell number change turned out to be 1.53%. `O=C(NN=C1CCCCC1)NC1CCCCC1`: under setting [1], the AC50 is 0.411 µM [rising, full curve, poor fit]. Turning to `COc1cccc(/C=N/NC(=O)C(=O)N2CCCCCC2)c1O`, the cell number change was -38.7%. For the same compound, under setting [2], the AC50 was 23.1 µM [falling, single point]. For the same compound, the AC50 under setting [1] is 29.1 µM [falling, single point]. `COc1ccc(C(=O)Nc2cccc3c2C(=O)NC3=O)cc1S(=O)(=O)N1CCOCC1`: the cell number change was -13.2%. The AC50 under setting [1] was 32.6 µM [falling, single point]. With `COc1ccc(Cl)cc1NC(=O)CSc1nnc(-c2ccncc2)n1CC1CCCO1` (stereo unspecified), the cell number change is 0.97%. In addition, under setting [1], the AC50 is 0.259 µM [rising, full curve]. Turning to `CCOc1cc(/C=N/N2C(=O)NC3(CCCCC3)C2=O)cc(Br)c1O`, the cell number change was -25.7%. Under setting [1], the AC50 was 2.31 µM [falling, full curve].

As to `O=C(NC(=S)Nc1ccc2[nH]c(=O)[nH]c2c1)c1cc(Br)ccc1Cl`, the cell number change was 31.7%. For the same compound, under setting [2], the AC50 was 23.1 µM [rising, single point]. Also, the AC50 under setting [1] is 0.291 µM [rising, full curve, poor fit]. With `O=S(=O)(Nc1ccc(-c2csc(-c3ccccc3)n2)cc1)c1ccccc1`, the cell number change is -63.9%. Also, the AC50 under setting [2] was 3.26 µM [falling, single point].

Consider `CC(=O)Nc1ccc(NC(=O)CSc2nnc(CC(C)O)n2-c2ccccc2)cc1` (stereo unspecified), for which the AC50 under setting [1] was 0.58 µM [falling, single point]. Consider `CCCC(=O)NC(c1ccccc1)c1ccc2cccnc2c1O` (stereo unspecified), for which the cell number change was -47.2%. Also, under setting [2], the AC50 is 14.6 µM [falling, single point]. For the same compound, under setting [1], the AC50 is 0.651 µM [falling, partial curve, poor fit]. Take `Cc1cccc(N(C(=O)CCC(=O)Nc2cc(C)on2)C(C(=O)NC2CCCC2)c2ccccc2)c1` (stereo unspecified): the cell number change was 7.83%.

Regarding `COCCNC(=O)Nc1ccc(F)cc1`, the cell number change is -48.9%. Moreover, under setting [2], the AC50 was 0.891 µM [falling, full curve]. In addition, the AC50 under setting [1] was 2.51 µM [falling, full curve]. In the case of `CCn1cnc2sc(C(=O)N3CCN(c4ccc(OC)cc4)CC3)c(C)c2c1=O`, the cell number change was 17.2%. In addition, the AC50 under setting [1] was 29.1 µM [rising, single point]. With `CC(=O)Nc1nonc1NC(=O)COc1ccccc1`, the cell number change is -32.9%. The AC50 under setting [2] is 0.731 µM [falling, full curve, poor fit]. The AC50 under setting [1] is 29.1 µM [falling, single point]. Regarding `CCOc1ccc(/C=C/C(O)=C2/C(=O)NC3(C)CC2c2ccccc2O3)cc1OC` (stereo unspecified), the cell number change was -35.2%. For the same compound, the AC50 under setting [2] was 29.1 µM [falling, single point]. Besides, under setting [1], the AC50 was 29.1 µM [falling, single point]. With `COC(=O)CN1C(=O)Nc2ccc(Br)cc2C1c1ccccc1Cl` (stereo unspecified), the cell number change is -31.1%. Moreover, the AC50 under setting [2] is 20.6 µM [falling, single point]. Also, the AC50 under setting [1] was 0.164 µM [rising, full curve, poor fit].

With `Cc1[nH]nc2c1C(c1cnn(C)c1)C(C#N)=C(N)O2` (stereo unspecified), the cell number change was -30.6%. Under setting [1], the AC50 was 32.6 µM [falling, single point]. With `O=C(N/N=C/c1sc(N2CCOCC2)nc1-c1ccccc1)c1cccc(S(=O)(=O)N2CCOCC2)c1`, the cell number change was -49.4%. The AC50 under setting [2] is 14.6 µM [falling, partial curve, poor fit]. For the same compound, under setting [1], the AC50 was 3.66 µM [falling, full curve]. Consider `COC(=O)CCCNc1ncccc1[N+](=O)[O-]`, for which the cell number change is -10.9%.

Turning to `COc1ccc2nc(NC(=O)CSc3nc(SC)ns3)sc2c1`, the cell number change is -13.8%. Further, under setting [1], the half-maximal activity concentration (AC50) was 13 µM [falling, partial curve, poor fit].

These data come from PubChem BioAssay AID2685 (National Center for Advancing Translational Sciences (NCATS), 2010).
